In general, inhibition refers to the change of the read-out against control, counted positive when it falls.

By UniProt entry, the sequences of proteins in these tests, tags left out.
UniProt P13612, whole entry, looked up: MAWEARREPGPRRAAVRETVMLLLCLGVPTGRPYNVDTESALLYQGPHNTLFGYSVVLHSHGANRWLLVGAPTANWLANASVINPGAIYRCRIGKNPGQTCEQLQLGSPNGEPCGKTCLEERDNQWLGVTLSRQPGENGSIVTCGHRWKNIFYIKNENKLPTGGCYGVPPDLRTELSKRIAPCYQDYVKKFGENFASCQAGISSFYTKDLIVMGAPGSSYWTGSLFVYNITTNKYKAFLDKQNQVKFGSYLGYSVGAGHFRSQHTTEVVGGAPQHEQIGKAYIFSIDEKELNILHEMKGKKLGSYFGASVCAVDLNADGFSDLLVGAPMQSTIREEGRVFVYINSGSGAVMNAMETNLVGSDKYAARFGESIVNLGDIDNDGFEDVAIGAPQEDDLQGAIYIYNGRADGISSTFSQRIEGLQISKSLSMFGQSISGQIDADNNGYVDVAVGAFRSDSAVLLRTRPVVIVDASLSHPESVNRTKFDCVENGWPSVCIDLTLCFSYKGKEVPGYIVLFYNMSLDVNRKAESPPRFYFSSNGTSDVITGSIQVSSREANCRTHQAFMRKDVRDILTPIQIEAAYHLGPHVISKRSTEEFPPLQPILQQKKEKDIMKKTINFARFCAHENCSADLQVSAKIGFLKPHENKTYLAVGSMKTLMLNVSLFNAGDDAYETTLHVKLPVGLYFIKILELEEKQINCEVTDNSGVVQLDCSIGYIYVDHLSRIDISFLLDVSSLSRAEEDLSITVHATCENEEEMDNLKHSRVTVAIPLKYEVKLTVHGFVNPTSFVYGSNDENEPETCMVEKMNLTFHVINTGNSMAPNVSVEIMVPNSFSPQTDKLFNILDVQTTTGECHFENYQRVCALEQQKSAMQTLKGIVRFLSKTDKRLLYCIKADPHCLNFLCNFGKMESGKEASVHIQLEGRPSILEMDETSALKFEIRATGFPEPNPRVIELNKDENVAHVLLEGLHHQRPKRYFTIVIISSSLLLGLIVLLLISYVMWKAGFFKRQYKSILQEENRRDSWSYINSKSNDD

Among all 1,300 compounds or so, about 20 (2%) were called active. No stated cut-off is given here; in the data, active means inhibition above about 40%; inactive means the rest. The entries are a selection whose mix differs from that of the whole data set.

The assay deals with Integrin alpha-4 (Homo sapiens) (UniProt P13612). Briefly: VLA-4 modulation in picked hits – cell-based, cherry-picked plates, U937, HUTS-21 LIBS antibody, confirmation (AID 2813).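 Further: 0% = ligand without compound and 100% = no ligand background.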 The settings on record: U937 cells, HUTS-21 LIBS mAb binding, flow cytometry; at 6.7 µM; stronger effect = higher value. Background: In flow cytometry, cells or beads pass a laser one at a time.
In the case of `O=c1c2ccccc2nc(-c2ccc(Cl)cc2Cl)n1-c1ccncc1`, the inhibition is inactive: 0%.

The record behind these values is PubChem BioAssay AID2813 (NMMLSC, 2010).
